From the supplement of paper PMC10849652
Some of the results follow.

The chains behind the UniProt entries cited, without tags or fusion partners. Where a name states a change or a piece, a line headed by the entry shows the natural chain unless it says otherwise.
UniProt Q63HN8: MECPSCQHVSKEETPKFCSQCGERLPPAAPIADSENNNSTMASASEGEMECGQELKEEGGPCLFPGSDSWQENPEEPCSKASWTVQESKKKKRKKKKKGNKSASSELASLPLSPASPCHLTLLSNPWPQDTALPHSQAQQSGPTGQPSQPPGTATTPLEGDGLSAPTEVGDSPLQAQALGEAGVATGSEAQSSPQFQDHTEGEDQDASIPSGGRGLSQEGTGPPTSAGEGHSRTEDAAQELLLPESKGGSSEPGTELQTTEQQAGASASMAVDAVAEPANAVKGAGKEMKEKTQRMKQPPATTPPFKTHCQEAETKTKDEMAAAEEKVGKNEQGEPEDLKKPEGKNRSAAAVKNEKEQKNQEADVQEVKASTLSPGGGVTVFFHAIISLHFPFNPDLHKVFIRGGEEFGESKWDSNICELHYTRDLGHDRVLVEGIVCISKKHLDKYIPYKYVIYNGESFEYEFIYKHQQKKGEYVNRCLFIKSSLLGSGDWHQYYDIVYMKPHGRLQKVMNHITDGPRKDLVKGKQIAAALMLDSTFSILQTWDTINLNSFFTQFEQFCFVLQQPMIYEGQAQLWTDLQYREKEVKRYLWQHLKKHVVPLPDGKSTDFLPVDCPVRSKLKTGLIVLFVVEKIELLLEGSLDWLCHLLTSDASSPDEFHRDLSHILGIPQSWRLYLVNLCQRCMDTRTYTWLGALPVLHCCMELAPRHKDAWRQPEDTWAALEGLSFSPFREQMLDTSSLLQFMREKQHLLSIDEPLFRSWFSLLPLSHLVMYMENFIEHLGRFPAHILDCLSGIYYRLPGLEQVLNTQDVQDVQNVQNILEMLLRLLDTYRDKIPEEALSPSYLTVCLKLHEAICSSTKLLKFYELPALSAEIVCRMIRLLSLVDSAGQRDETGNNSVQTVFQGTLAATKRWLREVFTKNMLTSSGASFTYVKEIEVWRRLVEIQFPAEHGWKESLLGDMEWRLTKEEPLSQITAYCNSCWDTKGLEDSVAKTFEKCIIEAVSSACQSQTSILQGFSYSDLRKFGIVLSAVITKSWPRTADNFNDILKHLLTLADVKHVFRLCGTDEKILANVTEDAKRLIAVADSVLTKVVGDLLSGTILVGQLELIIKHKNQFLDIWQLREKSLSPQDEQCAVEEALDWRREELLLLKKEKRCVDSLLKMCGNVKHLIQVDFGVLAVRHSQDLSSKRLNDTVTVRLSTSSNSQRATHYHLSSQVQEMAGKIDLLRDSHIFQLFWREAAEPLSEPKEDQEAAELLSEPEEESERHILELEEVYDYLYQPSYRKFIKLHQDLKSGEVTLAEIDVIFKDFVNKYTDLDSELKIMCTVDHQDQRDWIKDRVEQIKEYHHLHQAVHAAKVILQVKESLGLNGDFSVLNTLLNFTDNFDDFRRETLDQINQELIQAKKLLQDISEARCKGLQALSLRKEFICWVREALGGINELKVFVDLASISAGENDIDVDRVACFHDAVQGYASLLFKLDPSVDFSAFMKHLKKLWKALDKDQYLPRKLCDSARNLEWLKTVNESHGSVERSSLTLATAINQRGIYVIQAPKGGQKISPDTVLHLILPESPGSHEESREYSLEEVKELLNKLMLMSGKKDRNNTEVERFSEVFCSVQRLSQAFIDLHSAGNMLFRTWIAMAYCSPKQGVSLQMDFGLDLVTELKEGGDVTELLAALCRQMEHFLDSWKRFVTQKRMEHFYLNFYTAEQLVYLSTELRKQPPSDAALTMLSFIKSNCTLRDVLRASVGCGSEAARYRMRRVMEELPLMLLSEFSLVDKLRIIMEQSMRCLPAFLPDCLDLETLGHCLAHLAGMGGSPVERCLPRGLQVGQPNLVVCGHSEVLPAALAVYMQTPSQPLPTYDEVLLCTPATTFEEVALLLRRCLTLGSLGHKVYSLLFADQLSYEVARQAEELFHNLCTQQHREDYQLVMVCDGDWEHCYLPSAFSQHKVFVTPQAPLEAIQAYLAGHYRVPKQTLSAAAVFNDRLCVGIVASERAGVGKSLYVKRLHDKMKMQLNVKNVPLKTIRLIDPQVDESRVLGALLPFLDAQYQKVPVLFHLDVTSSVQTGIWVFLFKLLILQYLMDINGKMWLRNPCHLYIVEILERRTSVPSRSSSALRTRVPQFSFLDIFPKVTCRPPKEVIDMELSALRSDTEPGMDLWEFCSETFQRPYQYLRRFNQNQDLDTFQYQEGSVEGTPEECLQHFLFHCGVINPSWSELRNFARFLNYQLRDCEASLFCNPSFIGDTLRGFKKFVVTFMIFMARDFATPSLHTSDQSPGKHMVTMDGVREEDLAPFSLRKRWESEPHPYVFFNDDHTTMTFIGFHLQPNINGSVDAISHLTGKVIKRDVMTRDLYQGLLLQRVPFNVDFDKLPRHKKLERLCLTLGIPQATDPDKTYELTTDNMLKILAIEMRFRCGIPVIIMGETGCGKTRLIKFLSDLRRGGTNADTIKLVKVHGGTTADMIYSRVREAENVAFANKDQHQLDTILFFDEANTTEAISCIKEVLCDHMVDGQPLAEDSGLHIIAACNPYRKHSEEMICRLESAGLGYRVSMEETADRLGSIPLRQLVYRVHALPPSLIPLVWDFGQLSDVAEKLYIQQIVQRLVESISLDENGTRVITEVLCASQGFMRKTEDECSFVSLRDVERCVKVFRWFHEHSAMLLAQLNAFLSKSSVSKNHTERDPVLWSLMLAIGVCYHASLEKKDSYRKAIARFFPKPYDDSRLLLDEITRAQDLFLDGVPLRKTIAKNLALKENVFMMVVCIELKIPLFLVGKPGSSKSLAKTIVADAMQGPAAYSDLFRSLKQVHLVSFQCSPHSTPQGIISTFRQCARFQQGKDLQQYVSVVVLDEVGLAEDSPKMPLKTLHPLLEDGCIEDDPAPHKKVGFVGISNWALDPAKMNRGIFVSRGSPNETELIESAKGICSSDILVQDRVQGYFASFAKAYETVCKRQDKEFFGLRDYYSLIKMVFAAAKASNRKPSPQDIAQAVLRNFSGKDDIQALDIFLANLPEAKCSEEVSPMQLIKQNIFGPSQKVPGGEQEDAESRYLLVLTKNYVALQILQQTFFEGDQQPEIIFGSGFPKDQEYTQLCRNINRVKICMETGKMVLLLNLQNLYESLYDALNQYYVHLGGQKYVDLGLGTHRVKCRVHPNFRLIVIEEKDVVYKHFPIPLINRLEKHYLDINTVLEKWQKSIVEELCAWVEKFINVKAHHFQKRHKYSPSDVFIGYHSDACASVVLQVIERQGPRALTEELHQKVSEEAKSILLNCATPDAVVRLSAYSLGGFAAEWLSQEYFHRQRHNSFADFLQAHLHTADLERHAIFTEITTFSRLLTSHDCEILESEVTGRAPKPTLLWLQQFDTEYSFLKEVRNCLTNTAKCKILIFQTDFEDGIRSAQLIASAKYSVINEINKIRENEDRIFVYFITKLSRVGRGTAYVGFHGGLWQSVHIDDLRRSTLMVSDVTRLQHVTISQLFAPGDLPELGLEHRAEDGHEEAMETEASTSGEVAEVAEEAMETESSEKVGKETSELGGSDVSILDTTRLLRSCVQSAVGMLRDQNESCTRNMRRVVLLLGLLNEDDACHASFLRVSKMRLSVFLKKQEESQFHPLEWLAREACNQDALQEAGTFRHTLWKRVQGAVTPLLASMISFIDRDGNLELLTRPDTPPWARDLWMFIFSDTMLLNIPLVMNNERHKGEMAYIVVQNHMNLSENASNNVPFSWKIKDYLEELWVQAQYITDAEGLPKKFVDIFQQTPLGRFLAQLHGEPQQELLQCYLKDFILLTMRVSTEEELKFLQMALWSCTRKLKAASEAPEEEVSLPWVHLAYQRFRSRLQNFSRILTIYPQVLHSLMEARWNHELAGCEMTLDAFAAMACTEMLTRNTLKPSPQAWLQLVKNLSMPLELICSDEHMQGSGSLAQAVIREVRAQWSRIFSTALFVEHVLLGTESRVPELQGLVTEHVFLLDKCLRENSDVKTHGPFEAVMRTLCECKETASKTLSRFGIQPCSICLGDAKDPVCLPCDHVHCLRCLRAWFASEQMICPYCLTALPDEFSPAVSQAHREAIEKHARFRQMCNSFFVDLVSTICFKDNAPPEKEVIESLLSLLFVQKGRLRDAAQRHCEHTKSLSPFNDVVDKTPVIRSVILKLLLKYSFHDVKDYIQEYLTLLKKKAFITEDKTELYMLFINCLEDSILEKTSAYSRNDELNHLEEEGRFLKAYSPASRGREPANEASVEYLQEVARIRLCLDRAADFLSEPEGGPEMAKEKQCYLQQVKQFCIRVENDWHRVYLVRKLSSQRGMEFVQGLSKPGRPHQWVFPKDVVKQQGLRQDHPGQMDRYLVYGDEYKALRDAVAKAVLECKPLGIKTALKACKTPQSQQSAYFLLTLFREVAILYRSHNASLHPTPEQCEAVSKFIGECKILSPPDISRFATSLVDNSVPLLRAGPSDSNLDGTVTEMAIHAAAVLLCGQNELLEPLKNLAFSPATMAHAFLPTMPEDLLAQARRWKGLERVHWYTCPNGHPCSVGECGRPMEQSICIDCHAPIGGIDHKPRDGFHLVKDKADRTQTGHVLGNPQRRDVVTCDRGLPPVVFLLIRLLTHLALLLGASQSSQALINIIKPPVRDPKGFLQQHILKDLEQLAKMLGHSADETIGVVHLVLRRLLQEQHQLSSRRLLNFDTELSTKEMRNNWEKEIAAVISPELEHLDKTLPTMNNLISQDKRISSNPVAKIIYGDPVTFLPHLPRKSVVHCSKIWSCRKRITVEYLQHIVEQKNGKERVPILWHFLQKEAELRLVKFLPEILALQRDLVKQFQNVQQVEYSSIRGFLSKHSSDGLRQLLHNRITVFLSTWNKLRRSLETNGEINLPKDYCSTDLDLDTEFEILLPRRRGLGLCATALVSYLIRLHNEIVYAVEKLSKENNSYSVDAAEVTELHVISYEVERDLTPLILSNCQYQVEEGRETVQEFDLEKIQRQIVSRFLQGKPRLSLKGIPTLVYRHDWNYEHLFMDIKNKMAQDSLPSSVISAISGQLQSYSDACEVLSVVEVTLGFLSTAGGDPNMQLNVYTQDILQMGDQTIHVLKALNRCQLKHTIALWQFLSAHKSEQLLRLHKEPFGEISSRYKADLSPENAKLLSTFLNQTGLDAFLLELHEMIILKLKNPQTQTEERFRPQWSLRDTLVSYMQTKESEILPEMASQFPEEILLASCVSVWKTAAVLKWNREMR
UniProt Q8IXI1, whole entry, looked up: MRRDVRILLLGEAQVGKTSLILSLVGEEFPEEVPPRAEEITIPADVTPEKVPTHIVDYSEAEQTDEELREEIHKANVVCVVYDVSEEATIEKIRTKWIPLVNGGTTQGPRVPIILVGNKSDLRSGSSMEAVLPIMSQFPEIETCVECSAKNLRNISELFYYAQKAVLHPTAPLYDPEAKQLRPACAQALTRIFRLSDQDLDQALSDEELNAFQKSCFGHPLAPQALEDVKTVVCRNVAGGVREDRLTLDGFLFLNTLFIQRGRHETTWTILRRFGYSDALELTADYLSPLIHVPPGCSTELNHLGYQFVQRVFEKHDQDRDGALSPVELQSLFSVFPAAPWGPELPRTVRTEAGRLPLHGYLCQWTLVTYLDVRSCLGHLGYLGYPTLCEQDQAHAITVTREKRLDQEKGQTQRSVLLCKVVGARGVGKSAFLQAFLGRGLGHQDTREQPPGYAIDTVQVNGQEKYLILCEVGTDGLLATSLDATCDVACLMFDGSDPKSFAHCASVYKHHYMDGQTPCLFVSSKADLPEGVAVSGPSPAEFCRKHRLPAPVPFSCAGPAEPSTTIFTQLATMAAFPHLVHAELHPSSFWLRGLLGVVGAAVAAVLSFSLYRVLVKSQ
UniProt P08134, whole entry, looked up: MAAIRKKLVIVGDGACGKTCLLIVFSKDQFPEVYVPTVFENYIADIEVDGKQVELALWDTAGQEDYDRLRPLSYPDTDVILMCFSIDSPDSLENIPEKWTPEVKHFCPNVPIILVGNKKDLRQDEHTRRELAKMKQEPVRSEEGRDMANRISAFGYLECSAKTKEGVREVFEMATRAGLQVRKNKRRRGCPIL
UniProt Q14257: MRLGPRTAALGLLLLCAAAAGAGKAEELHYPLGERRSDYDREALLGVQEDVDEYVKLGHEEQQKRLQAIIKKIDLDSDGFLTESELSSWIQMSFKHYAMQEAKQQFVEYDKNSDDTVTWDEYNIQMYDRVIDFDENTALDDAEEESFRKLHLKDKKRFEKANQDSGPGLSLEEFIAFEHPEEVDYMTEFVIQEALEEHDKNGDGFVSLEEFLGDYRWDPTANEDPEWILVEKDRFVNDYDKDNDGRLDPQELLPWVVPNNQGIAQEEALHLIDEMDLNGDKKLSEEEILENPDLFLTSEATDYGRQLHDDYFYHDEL
UniProt Q00765: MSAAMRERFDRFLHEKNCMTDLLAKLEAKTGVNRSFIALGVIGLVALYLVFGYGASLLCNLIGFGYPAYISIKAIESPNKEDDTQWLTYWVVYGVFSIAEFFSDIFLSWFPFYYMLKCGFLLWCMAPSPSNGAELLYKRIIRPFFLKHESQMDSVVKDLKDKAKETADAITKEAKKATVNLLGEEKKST

compound: CN(C)CC(=O)Nc1ccc2[nH]c(=O)c3ccccc3c2c1; test: log2 fold change, soluble protein after heating vs DMSO (PISA); higher = thermal stabilisation; K562 cells, 10 uM, 30 min; active = over 0.2 and 3.5 SD of the protein, either way, in both replicates (recomputed)
Summary of the method: (§1)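 Aliquots of K562 cells (2×10^6 cells/mL) treated with 10 μM compound for 30 min were heated for 3 min over 48°C-58°C. After pooling and extraction in PBS with 0.5% NP-40 at 4°C, soluble protein from a 21,000xg, 90 min spin was quantified by TMTpro 16plex LC-MS/MS with channel sums equalised. Thermal stability is expressed against control samples, from duplicates, as a log2 fold change.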

log2 fold change, inactive:
RNF24 isoform 2 (UniProt Q9Y225) 0.28
RFK (UniProt Q969G6) 0
RNF181 (UniProt Q9P0P0) -0.021
RHOG (UniProt P84095) -0.019
RCSD1 (UniProt Q6JBY9) -0.067
RMND1 (UniProt Q9NWS8) 0.079
RNF213 isoform 4 (UniProt Q63HN8) 0.213
REPS1 (UniProt Q96D71) -0.072
REEP3 (UniProt Q6NUK4) 0.061
RFX1 (UniProt P22670) 0.024
RBMX (UniProt P38159) -0.039
RIOK1 (UniProt Q9BRS2) -0.002
RHOT2 (UniProt Q8IXI1) 0.018
RILP (UniProt Q96NA2) 0.002
RHAG (UniProt Q02094) 0.064
RCC2 (UniProt Q9P258) 0.012
RFT1 (UniProt Q96AA3) 0.008
RBPJ (UniProt Q06330) -0.007
REXO2 (UniProt Q9Y3B8) -0.005
RDX (UniProt P35241) -0.006
RHOC (UniProt P08134) 0.016
RNF113A (UniProt O15541) -0.036
RBM38 (UniProt Q9H0Z9) -0.018
RHOB (UniProt P62745) -0.019
RHBDD1 (UniProt Q8TEB9) -0.199
RNF114 (UniProt Q9Y508) 0.005
RCN2 isoform 2 (UniProt Q14257) -0.01
RNF214 (UniProt Q8ND24) 0.01
RELN (UniProt P78509) -0.051
RCC1L (UniProt Q96I51) -0.028
REEP5 (UniProt Q00765) -0.073
RMDN3 (UniProt Q96TC7) -0.005
RENBP (UniProt P51606) -0.019
RFC4 (UniProt P35249) 0.014
REEP6 (UniProt Q96HR9) 0.002
RMDN1 (UniProt Q96DB5) 0.013
RCCD1 (UniProt A6NED2) -0.012
REPIN1 isoform 4 (UniProt Q9BWE0) 0.024

compound: CN(CCOC1=CC=C(C=C1)C[C@H]2C(=O)NC(=O)S2)C3=CC=CC=N3 (racemic) [rosiglitazone]; test: as above
Summary of the method: as §1

log2 fold change, inactive:
RNF24 isoform 2 (UniProt Q9Y225) -0.04
RFK (UniProt Q969G6) 0.039
RNF181 (UniProt Q9P0P0) -0.02
RHOG (UniProt P84095) -0.006
RCSD1 (UniProt Q6JBY9) -0.017
RMND1 (UniProt Q9NWS8) 0.034
RNF213 isoform 4 (UniProt Q63HN8) 0.031
REPS1 (UniProt Q96D71) -0.108
REEP3 (UniProt Q6NUK4) 0.061
RFX1 (UniProt P22670) -0.004
RBMX (UniProt P38159) -0.114
RIOK1 (UniProt Q9BRS2) -0.04
RHOT2 (UniProt Q8IXI1) 0.064
RILP (UniProt Q96NA2) 0.018
RHAG (UniProt Q02094) 0.046
RCC2 (UniProt Q9P258) 0.034
RFT1 (UniProt Q96AA3) 0.002
RBPJ (UniProt Q06330) -0.006
REXO2 (UniProt Q9Y3B8) -0.001
RDX (UniProt P35241) 0.037
RHOC (UniProt P08134) -0.003
RNF113A (UniProt O15541) -0.001
RBM38 (UniProt Q9H0Z9) 0.073
RHOB (UniProt P62745) 0.03
RHBDD1 (UniProt Q8TEB9) -0.039
RNF114 (UniProt Q9Y508) 0.002
RCN2 isoform 2 (UniProt Q14257) 0.023
RNF214 (UniProt Q8ND24) 0.069
RELN (UniProt P78509) 0.074
RCC1L (UniProt Q96I51) -0.011
REEP5 (UniProt Q00765) -0.024
RMDN3 (UniProt Q96TC7) 0.033
RENBP (UniProt P51606) 0.037
RFC4 (UniProt P35249) 0.02
REEP6 (UniProt Q96HR9) 0.006
RMDN1 (UniProt Q96DB5) 0.02
RCCD1 (UniProt A6NED2) -0.03
REPIN1 isoform 4 (UniProt Q9BWE0) -0.005
